Earlier results as cited in patent publication US20170295801A1, “Oil Based Organic and All Natural Pest Repellent for Humans and Pets” (priority 2016, published 2017).
Some results were stated once for a whole list of compounds, not compound by compound.

Tested on: malaria, filarial, ad yellow fever vectors
Settings: in vivo

CC(C)=CCC/C(C)=C/C=O [geranial]
period of repellency: 60 to 180 min
